Test results reported in article PMC12255723.
Results are given in words; binding and its absence hold for the method and conditions named. Binding seen in cells or lysates may run through a third protein. Some results given as binding are weak or reduced against the parent protein; the word gives no strength. Where a sequence is shown, tags or fusion partners need not be part of it.

Amino acid sequences for entries named in this document (tags omitted).
UniProt P17844: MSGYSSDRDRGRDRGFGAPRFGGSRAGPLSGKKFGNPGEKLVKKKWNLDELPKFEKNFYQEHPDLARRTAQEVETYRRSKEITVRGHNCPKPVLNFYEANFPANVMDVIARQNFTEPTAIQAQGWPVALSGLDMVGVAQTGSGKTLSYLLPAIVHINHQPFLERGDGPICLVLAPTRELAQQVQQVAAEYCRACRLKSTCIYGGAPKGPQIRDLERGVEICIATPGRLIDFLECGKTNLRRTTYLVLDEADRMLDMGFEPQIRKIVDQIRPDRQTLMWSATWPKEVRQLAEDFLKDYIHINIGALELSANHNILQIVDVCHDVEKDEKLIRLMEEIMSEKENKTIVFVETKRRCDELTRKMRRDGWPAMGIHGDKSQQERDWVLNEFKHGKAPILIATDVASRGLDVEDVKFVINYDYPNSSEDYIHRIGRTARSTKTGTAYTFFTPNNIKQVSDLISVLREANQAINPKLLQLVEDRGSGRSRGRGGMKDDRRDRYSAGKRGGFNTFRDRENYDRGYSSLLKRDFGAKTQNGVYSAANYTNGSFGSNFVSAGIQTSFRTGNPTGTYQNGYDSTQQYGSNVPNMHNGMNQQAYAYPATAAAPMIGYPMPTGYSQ

Molecular target: T1, OTUD6B-Flag (UniProt Q8N6M0)
T1 sequence: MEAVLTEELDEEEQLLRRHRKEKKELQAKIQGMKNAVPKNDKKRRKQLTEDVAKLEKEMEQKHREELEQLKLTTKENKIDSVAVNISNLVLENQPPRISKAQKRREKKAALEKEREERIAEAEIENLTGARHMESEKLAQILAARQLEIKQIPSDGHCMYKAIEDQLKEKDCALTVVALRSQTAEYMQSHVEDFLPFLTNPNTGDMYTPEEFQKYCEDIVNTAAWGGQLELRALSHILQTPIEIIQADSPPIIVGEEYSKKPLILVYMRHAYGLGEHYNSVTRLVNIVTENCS
Experiment: co-IP; HCT116 cells transfected with the plasmids for 48 h; lysed in IP buffer (20 mM Tris, 150 mM NaCl, 1 mM EDTA, 1% Triton X-100); Flag or Myc antibody and agarose beads overnight at 4 °C; Western blot

DDX5-Myc (from UniProt P17844 1-614) (enzyme)
binding: binds
